Measurements as given in the supplement of paper PMC6411743.
± gives the standard deviation of the averaged measurements. Only a part is listed here, and it is no random draw.

Chains of the proteins cited; added tags and fusions are not shown. Lines headed by an entry give the natural chain unless they say otherwise; changes in a name come on top.
UniProt O43291: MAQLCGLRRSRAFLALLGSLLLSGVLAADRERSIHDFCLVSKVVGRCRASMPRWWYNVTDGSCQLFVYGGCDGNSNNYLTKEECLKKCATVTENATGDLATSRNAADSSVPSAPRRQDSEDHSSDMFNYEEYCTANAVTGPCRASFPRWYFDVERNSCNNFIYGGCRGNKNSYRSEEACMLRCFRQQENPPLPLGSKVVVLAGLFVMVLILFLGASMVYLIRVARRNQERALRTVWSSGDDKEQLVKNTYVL
UniProt Q15032: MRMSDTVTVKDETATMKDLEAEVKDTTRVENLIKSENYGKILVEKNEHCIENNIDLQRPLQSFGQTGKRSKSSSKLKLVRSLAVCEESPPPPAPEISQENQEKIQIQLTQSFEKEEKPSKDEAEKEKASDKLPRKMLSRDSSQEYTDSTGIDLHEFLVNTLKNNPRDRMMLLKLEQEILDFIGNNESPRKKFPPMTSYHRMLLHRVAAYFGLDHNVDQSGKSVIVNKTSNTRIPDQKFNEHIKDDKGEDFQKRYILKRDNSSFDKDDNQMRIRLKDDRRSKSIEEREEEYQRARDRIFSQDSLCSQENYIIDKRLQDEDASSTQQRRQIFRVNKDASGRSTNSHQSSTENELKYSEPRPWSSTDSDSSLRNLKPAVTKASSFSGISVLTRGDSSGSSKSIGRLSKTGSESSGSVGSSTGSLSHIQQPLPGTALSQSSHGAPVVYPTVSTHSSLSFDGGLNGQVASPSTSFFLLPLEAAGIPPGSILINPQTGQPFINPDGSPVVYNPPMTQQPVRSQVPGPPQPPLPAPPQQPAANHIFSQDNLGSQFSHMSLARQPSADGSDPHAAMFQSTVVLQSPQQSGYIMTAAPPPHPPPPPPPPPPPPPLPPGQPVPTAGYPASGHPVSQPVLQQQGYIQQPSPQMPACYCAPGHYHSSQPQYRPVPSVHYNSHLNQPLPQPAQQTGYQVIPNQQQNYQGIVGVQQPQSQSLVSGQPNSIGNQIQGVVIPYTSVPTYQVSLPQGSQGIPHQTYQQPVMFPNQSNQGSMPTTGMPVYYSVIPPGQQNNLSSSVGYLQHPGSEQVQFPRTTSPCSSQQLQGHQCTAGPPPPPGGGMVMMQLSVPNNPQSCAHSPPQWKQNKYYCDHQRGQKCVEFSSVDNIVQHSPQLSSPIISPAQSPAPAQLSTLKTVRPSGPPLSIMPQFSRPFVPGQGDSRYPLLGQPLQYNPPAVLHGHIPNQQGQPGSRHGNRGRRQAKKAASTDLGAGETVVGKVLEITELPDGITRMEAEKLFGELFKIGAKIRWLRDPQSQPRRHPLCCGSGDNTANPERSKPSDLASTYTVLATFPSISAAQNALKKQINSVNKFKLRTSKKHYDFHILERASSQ
UniProt Q2TAZ0: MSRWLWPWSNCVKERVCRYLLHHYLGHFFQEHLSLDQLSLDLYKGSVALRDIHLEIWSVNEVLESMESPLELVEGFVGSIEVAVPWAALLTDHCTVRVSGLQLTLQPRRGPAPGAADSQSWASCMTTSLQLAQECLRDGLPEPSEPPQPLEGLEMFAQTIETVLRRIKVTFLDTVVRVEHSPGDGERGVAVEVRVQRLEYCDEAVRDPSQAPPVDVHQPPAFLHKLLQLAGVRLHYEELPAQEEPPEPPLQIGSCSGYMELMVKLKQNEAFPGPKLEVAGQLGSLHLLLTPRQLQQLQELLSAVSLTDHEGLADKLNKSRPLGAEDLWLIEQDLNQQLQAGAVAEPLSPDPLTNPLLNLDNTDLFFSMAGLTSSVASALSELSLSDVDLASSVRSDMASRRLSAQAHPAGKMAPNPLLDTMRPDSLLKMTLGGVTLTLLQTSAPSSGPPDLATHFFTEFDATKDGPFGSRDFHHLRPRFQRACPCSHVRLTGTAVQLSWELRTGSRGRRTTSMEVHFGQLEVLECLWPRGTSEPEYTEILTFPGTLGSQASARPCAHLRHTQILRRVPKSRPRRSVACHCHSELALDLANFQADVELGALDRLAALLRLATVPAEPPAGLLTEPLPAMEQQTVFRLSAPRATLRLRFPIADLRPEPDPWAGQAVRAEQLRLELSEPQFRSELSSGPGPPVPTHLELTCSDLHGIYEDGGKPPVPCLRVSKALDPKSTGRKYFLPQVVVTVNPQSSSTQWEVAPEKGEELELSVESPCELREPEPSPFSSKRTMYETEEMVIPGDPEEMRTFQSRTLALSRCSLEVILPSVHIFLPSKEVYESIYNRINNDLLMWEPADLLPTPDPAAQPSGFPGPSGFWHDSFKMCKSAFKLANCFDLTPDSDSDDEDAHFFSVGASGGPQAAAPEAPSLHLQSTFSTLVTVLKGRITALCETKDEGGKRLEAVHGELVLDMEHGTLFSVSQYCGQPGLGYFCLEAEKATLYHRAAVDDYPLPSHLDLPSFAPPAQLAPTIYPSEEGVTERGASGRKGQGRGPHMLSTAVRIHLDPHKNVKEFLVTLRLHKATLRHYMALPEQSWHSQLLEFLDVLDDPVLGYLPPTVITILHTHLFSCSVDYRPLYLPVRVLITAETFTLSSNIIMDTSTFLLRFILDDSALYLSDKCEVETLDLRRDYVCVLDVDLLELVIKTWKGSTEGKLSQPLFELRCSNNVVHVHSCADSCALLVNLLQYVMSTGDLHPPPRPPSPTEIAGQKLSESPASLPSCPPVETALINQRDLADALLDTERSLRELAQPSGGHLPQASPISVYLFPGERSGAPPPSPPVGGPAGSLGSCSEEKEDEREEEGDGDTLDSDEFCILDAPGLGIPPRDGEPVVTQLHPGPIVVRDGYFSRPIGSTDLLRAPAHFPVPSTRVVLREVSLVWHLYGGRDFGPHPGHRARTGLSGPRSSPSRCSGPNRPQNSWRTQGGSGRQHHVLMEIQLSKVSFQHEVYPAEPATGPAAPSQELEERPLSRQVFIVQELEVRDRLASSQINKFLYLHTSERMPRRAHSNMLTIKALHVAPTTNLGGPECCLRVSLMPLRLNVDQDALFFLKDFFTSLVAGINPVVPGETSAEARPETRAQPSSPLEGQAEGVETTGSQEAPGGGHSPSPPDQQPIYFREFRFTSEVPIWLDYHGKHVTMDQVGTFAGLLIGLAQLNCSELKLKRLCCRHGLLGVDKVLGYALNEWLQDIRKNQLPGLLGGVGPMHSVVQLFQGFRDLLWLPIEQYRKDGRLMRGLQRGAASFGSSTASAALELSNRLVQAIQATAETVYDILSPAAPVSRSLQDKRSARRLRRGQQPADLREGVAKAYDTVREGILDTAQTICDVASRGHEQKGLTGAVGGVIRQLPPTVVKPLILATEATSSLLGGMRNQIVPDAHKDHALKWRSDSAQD
UniProt Q9H9Q4: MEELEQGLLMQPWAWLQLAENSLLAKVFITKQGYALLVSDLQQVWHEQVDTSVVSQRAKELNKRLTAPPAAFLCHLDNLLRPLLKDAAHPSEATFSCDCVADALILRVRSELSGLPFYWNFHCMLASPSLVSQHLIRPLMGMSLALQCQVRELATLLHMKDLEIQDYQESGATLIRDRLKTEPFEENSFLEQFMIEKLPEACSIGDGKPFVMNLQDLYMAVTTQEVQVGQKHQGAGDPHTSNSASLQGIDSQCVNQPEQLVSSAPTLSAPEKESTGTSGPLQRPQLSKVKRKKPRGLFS
UniProt P09493, whole entry: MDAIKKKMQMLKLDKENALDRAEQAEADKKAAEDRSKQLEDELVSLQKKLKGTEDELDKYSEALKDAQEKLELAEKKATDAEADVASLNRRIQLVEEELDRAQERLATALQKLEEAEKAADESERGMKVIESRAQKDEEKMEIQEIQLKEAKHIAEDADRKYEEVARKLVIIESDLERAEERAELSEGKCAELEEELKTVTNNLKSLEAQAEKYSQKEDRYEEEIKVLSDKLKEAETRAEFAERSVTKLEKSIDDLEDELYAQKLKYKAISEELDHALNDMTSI
UniProt P62316, whole entry: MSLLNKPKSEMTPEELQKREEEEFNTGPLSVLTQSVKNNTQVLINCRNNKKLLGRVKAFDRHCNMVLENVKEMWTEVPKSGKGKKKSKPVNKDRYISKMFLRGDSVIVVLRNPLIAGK
UniProt Q8N4P3, whole entry: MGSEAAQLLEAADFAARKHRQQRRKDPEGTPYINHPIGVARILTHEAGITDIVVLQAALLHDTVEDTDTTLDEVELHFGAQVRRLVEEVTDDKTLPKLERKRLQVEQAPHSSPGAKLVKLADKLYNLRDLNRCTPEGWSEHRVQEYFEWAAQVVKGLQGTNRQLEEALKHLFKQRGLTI
UniProt O95759: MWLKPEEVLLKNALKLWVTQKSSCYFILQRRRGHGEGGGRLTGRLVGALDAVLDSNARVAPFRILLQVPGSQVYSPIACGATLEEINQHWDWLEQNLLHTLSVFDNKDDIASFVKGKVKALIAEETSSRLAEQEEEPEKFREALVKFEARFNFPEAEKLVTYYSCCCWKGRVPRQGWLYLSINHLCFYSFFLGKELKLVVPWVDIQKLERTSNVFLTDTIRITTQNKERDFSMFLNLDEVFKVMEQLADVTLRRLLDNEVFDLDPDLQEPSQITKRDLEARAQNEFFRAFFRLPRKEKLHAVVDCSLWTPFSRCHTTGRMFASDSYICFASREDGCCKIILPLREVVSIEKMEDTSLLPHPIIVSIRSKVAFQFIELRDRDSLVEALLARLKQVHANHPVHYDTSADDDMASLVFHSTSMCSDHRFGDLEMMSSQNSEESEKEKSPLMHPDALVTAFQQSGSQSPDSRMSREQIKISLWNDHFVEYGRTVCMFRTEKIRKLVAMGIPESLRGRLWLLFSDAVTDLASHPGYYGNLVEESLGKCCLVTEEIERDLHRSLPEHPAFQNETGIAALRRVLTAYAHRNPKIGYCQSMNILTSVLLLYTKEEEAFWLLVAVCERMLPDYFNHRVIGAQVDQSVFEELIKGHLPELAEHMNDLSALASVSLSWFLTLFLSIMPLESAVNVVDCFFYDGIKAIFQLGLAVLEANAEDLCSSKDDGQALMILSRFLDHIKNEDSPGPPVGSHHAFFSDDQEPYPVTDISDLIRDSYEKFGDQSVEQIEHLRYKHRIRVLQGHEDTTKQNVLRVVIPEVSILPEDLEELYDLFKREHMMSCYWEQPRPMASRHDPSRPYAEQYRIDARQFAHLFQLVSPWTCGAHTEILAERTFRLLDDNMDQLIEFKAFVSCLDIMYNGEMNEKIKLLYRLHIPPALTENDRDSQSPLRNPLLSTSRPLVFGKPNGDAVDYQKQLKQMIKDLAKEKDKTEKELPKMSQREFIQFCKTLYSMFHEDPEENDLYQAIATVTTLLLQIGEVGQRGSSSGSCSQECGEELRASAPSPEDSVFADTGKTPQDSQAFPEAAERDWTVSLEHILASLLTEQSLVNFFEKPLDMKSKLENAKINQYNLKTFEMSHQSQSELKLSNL
UniProt Q9Y2K7: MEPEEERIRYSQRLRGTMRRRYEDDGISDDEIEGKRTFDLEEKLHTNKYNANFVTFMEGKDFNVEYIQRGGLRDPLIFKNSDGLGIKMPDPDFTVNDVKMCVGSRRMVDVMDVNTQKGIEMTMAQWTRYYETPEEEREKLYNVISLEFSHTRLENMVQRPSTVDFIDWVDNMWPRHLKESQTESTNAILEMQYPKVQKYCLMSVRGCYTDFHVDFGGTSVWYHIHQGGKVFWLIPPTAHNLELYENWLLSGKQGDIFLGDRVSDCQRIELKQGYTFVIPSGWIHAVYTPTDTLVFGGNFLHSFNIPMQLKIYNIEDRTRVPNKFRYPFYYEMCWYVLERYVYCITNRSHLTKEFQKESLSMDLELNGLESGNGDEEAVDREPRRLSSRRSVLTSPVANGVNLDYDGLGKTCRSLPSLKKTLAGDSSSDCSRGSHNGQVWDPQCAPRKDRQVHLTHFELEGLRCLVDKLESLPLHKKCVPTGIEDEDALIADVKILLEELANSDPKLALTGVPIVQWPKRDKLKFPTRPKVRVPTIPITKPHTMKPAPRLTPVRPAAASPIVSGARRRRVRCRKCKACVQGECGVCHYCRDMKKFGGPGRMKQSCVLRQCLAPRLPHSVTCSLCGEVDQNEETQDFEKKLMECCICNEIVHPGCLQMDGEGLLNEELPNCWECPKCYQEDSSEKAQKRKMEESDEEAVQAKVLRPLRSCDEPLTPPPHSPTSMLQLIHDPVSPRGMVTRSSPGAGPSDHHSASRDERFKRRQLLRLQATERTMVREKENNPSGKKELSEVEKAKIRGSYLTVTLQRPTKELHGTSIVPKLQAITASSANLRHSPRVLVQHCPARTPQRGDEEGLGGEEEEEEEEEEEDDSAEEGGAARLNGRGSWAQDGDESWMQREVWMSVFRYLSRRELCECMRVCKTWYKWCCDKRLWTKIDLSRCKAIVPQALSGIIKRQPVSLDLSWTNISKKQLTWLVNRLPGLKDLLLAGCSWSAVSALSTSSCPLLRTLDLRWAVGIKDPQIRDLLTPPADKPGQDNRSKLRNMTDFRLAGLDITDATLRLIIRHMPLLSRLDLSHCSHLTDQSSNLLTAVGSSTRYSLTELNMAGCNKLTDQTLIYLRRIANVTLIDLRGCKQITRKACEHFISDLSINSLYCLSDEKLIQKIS

Compound: Nc1ncnc2c1ncn2[C@@H]1O[C@H](COP(=O)(O)OP(=O)(O)OP(=O)(O)O)[C@@H](O)[C@H]1O [adenosine triphosphate]
Assay: NP40-soluble protein abundance relative to vehicle (solubility fold change) (ratio); higher = more soluble protein in presence of ATP
Outline: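 Each value is a fold change relative to the detergent-processed vehicle, calculated per replicate from vsn-normalised intensities. Jurkat crude lysate received eight concentrations (0.1 to 10 mM) for 10 min at room temperature and 3 min at 37 °C, then was solubilised in 0.8% NP40 with benzonase (60 min, 4 °C). The ultracentrifuged supernatant was TMT-labelled and run by LC-MS/MS in three independent experiments.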

| Target | NP40-soluble protein abundance (concentration: 1mM) | NP40-soluble protein abundance (concentration: 2mM) | NP40-soluble protein abundance (concentration: 4mM) | NP40-soluble protein abundance (concentration: 6mM) | NP40-soluble protein abundance (concentration: 8mM) | NP40-soluble protein abundance (concentration: 10mM) |
| --- | --- | --- | --- | --- | --- | --- |
| J3KNA0 and related entries (UniProt Q15070) | 0.948 ± 0.07 | 0.948 ± 0.057 | 0.962 ± 0.041 | 0.894 ± 0.052 | 0.99 ± 0.062 | 0.986 ± 0.088 |
| K7EM91 and related entries (UniProt O43291) | 0.922 ± 0.071 | 0.953 ± 0.1 | 0.986 ± 0.066 | 0.975 ± 0.082 | 0.931 ± 0.096 | 0.917 ± 0.12 |
| H7C2F9 and related entries (UniProt Q15032) | 0.942 ± 0.11 | 0.924 ± 0.041 | 0.941 ± 0.047 | 0.937 ± 0.063 | 0.891 ± 0.056 | 0.91 ± 0.029 |
| H7C3T2 and related entries (UniProt Q2TAZ0) | 0.9778 ± 0.0038 | 0.943 ± 0.058 | 0.969 ± 0.027 | 0.976 ± 0.039 | 0.949 ± 0.051 | 0.917 ± 0.022 |
| H7C0G7 and related entries (UniProt Q9H9Q4) | 1.02 ± 0.13 | 0.948 ± 0.085 | 0.941 ± 0.096 | 0.984 ± 0.15 | 0.865 ± 0.067 | 0.944 ± 0.096 |
| H7BYY1 and related entries (UniProt P09493) | 1.04 ± 0.052 | 1.01 ± 0.11 | 1.07 ± 0.1 | 1.13 ± 0.062 | 1.28 ± 0.2 | 0.904 ± 0.35 |
| J3KQ48 and related entries (UniProt Q9Y3E5) | 1.03 ± 0.027 | 1.02 ± 0.029 | 1.02 ± 0.034 | 1.04 ± 0.021 | 1.02 ± 0.018 | 0.977 ± 0.06 |
| H3BMM5 and related entries (UniProt Q96AX1+H3BMM5) | 1.02 ± 0.089 | 0.994 ± 0.044 | 0.996 ± 0.02 | 0.932 ± 0.061 | 1.01 ± 0.025 | 1.01 ± 0.039 |
| K7EP59 and related entries (UniProt Q15831) | 0.986 ± 0.018 | 0.942 ± 0.083 | 1.01 ± 0.054 | 0.998 ± 0.026 | 0.975 ± 0.1 | 0.979 ± 0.061 |
| K7EJB5 and related entries (UniProt P62316) | 1.1 ± 0.11 | 1.11 ± 0.099 | 1.18 ± 0.12 | 1.3 ± 0.12 | 1.34 ± 0.097 | 1.32 ± 0.1 |
| H0YNP9 and related entries (UniProt Q8N4P3) | 1.17 ± 0.44 | 1.19 ± 0.26 | 1.08 ± 0.2 | 1.16 ± 0.25 | 1.08 ± 0.07 | 1.08 ± 0.18 |
| J3KQ40 and related entries (UniProt O95759) | 1.04 ± 0.13 | 0.903 ± 0.15 | 1.06 ± 0.2 | 0.984 ± 0.16 | 1.1 ± 0.26 | 1.12 ± 0.12 |
| I3VM54 and related entries (UniProt Q9Y2K7) | 1.23 ± 0.031 | 1.298 ± 0.011 | 1.42 ± 0.029 | 1.51 ± 0.049 | 1.536 ± 0.009 | 1.6 ± 0.046 |
| K7ENF0 and related entries (UniProt O43776) | 0.972 ± 0.026 | 0.962 ± 0.044 | 0.9276 ± 0.0063 | 0.905 ± 0.043 | 0.975 ± 0.053 | 0.948 ± 0.05 |
| H0YIE9 and related entries (UniProt O94952) | 1.04 ± 0.11 | 1.04 ± 0.083 | 1.03 ± 0.13 | 1.01 ± 0.12 | 1.04 ± 0.086 | 1.05 ± 0.08 |

Quoted from above (2 entries):

| Target | NP40-soluble protein abundance (concentration: 1mM) | NP40-soluble protein abundance (concentration: 2mM) | NP40-soluble protein abundance (concentration: 4mM) | NP40-soluble protein abundance (concentration: 6mM) | NP40-soluble protein abundance (concentration: 8mM) | NP40-soluble protein abundance (concentration: 10mM) |
| --- | --- | --- | --- | --- | --- | --- |
| H7C0G7 and related entries (UniProt Q9H9Q4) | 1.02 ± 0.13 | 0.948 ± 0.085 | 0.941 ± 0.096 | 0.984 ± 0.15 | 0.865 ± 0.067 | 0.944 ± 0.096 |
| H7BYY1 and related entries (UniProt P09493) | 1.04 ± 0.052 | 1.01 ± 0.11 | 1.07 ± 0.1 | 1.13 ± 0.062 | 1.28 ± 0.2 | 0.904 ± 0.35 |
